Data from PubChem BioAssay AID743266 (National Center for Advancing Translational Sciences (NCATS), 2014).
Out of some 410,000 compounds screened, about 310 (0.076%) were called active. Inconclusive means that the source gave no clear call. Such entries were picked first, then a sample of the others. The call rests on the fitted dose curve; in most records, active means well fitted activation curve with a large enough effect; inconclusive means small, poorly fitted or top-dose-only effect, or another doubt; inactive means no such curve, though single readings can be large or run the other way. Where the call is inconclusive, the potency comes from a doubtful curve fit.

The chains behind the UniProt entries cited, without tags or fusion partners.
UniProt Q03431, whole entry, looked up: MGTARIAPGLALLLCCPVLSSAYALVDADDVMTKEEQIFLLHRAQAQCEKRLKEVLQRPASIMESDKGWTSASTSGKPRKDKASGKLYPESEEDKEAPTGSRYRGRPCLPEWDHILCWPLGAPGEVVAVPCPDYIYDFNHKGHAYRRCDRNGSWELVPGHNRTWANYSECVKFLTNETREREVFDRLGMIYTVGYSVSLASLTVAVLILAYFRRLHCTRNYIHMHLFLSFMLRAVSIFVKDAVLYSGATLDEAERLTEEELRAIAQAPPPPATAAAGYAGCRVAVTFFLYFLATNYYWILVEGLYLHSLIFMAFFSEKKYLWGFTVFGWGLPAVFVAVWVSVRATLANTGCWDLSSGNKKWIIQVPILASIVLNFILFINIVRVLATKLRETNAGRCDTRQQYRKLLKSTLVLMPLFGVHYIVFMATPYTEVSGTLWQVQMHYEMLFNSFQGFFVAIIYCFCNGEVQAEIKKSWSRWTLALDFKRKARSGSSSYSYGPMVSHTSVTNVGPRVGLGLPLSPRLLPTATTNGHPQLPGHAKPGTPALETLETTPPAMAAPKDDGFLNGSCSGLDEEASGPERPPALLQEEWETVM

Target: Parathyroid hormone/parathyroid hormone-related peptide receptor (Homo sapiens) (UniProt Q03431)
Assay: qHTS for PTHR1 Agonists: Primary Screen; further: nearly all actives have a fitted effect of over 55% in size
Settings: HEK293 GP2 PTHR1 cells, GloSensor cAMP luminescence, 1 h; activation: at 115 µM (top of the series) unless noted; series mostly up to 115 µM
How it was run: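 HEK-293-derived GP2 cells expressing PTHR1 and a GloSensor cAMP reporter, 3,000/well, plated overnight, given luciferin plus IBMX (each 0.5 mM as added) for 1 h at 37 °C, then compound for 1 h at 37 °C. Luminescence was read after 15 min at room temperature.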
Potency means the concentration at half of the fitted maximal effect.

outcome, inactive:
CN(C)CCCN(C(=O)c1cccc(N2C(=O)CCC2=O)c1)c1nc2cc3c(cc2s1)OCO3
COc1ccc(NC(=O)C(c2ccnc3ccccc23)n2c(=O)c(-c3ccco3)nc3ccccc32)cc1 (stereo unspecified)
O=S(=O)(c1ccc(Cl)s1)N1CCN(Cc2ccccc2)CC1 inactive [at 57.5 µM]
Cc1c(Cl)cccc1NC(=S)Nc1ccccn1
COc1ccc(NC(=O)Cn2c(=O)n(CCCCCC(=O)NCc3ccc4c(c3)OCO4)c(=O)c3sccc32)cc1Cl

Potency, inconclusive:
COc1ccc(CCNC(=O)CN(c2ccc(OC)c(OC)c2)S(=O)(=O)c2ccccc2)cc1OC 35.5 µM [activator, partial curve, poor fit]
Cc1ccc(C)c(/C(O)=C2\C(=O)C(=O)N(CCCn3ccnc3)C2c2cccnc2)c1 (stereo unspecified) 35.5 µM [activator, single point]
CCCS(=O)(=O)NCc1cn2cccc(C)c2n1 35.5 µM [activator, single point]
CC(=O)NCCn1c(SCC(=O)NC2CCCCC2)nc2ccccc2c1=O 56.2 µM [activator, partial curve, poor fit]
CC(=O)NC(NC(=S)Nc1ccc(S(N)(=O)=O)cc1)C(Cl)(Cl)Cl (stereo unspecified) 126 µM [activator, single point]
O=P(O)(O)C(O)C(F)(F)C(F)(F)C(F)(F)C(F)F (stereo unspecified) 39.8 µM [activator, partial curve, poor fit]
COc1cc(NC(=O)C2=CC(c3ccco3)=NS(=O)(=O)N2C)cc(OC)c1OC 100 µM [activator, single point]
COc1ccc(OC)c(S(=O)(=O)Nc2c(F)cccc2F)c1 31.6 µM [activator, single point]
O=C(Nc1cccc(Cl)c1)c1ccc(NCC2CCCO2)c([N+](=O)[O-])c1 (stereo unspecified) 100 µM [activator, single point]
CCOC(=O)CN(C(=O)c1snc(C(N)=O)c1N)C(C(=O)NC1CCCCC1)c1ccc(F)cc1 (stereo unspecified) 56.2 µM [activator, partial curve, poor fit]
CCCn1nnc(NC(=O)COc2ccc(C3CCCCC3)cc2)n1 44.7 µM [activator, single point]
CCOC(=O)c1cc(-c2ccccc2)n(CC(=O)Nc2ccc(CC)cc2)c1C 126 µM [activator, partial curve, poor fit]
CC1CCN(S(=O)(=O)c2ccc(NC(=O)Cc3cccs3)cc2)CC1 56.2 µM [activator, single point]
CN(C)CCOC(=O)C12CC3(C)CC(C)(CC(C)(C3)C1)C2 50.1 µM [activator, single point]
O=C(Nc1ccc(-c2csc(-c3ccccc3)n2)cc1)c1ccccc1 39.8 µM [activator, single point]
CCCn1c(SCC(=O)N2CCc3ccccc3C2)nc(O)cc1=O 15.8 µM [activator, partial curve]
CS(=O)(=O)c1ccc(Cl)c(NC(=O)CSc2n[nH]c(-c3cccs3)n2)c1 25.1 µM [activator, partial curve, poor fit]
O=S(=O)(c1ccc(Oc2ccccc2)cc1)N1CCOCC1 50.1 µM [activator, single point]
COc1ccc(/C=N/Nc2nc(C)nc(N)n2)cc1 126 µM [activator, single point]
O=C(N/N=C\c1ccc(Sc2ccccn2)o1)c1cccc(Br)c1 50.1 µM [activator, single point]

Retrieved by compound from above, 2 records:
Potency, inconclusive:
CCOC(=O)CN(C(=O)c1snc(C(N)=O)c1N)C(C(=O)NC1CCCCC1)c1ccc(F)cc1 (stereo unspecified) 56.2 µM [activator, partial curve, poor fit]
CCCn1c(SCC(=O)N2CCc3ccccc3C2)nc(O)cc1=O 15.8 µM [activator, partial curve]

Following part.

activation, inactive:
O=C(NNC(=O)c1ccc(Cl)cc1Cl)Nc1ccccc1 -2.02%
COc1ccc(N(CC(=O)N/N=C/c2ccc(OC)cc2OC)S(=O)(=O)c2ccccc2)cc1 -20.6%
Cc1cccc(NC(=O)c2cc(C)nc3ccccc23)c1 -10.4%
CC1(S(=O)(=O)O)CC(=O)c2ccccc2C1=O (stereo unspecified) -85.6%
COc1ccc(OC)c(-c2nnc3n2N=C(c2ccc(OC)c(OC)c2)CS3)c1 6.16%
CCn1ccc2cc(S(=O)(=O)N3CCC(C(=O)NCC(C)c4ccccc4)CC3)ccc21 (stereo unspecified) -41.2%
Cc1ccc(NC(=O)CSc2nc3ccccc3nc2Cc2ccccc2)c(Cl)c1 -10.6%
O=C(CN1CCC(n2nnc3cc(F)ccc32)CC1)NC1CCCCC1 -1.02% [at 57.5 µM]
CC(=O)Nc1ccc(N2CCC(C)CC2)c([N+](=O)[O-])c1 -17.8%
O=[N+]([O-])c1ccc(C=NNc2ccccc2)cc1 -39.8%
COc1ccc2nc(SCC(O)c3cccc(Br)c3)[nH]c2c1 (stereo unspecified) -4.06%
Cc1ccc(Sc2ccc(N3CCCC(C(=O)Nc4ccc(F)cc4)C3)nn2)cc1 (stereo unspecified) -19.1%

activation, inconclusive:
CCOC(=O)c1[nH]c2c(c1Cc1ccccc1OC)C(=O)CC(c1ccccc1)C2 (stereo unspecified) 33.9% [activator]
CC(=O)c1ccc(-n2nncc2C)cc1 41.4% [activator] [at 57.5 µM]
CCOc1cc(C)nc(N2CCN(C3CCCCC3)CC2)n1 35.2% [activator]
O=C(O)CCN1C(=O)c2ccc(NC(=O)c3ccco3)cc2C1=O -52.9% [activator]
Cc1cccc(Cn2c(C(C)O)nc3ccccc32)c1 (stereo unspecified) -52.2% [activator]
O=c1c2c3nc4ccccc4nc3n(/N=C/c3ccccn3)c2ncn1-c1ccccc1 -71.1% [activator]
O=C(Oc1ccccc1F)c1nc(SCc2ccccc2F)ncc1Cl 30.2% [activator]
N#CC1=C(N)C(C#N)(C#N)[C@H](c2c(F)cccc2F)[C@H]2CC3(CC=C12)OCCO3 65% [activator] [at 57.5 µM]
COc1ccc(S(=O)(=O)N/N=C(/C)c2ccncc2)cc1 46.9% [activator]
